Test results reported in patent publication US20130084614A1, “METHODS OF REMOVING INHIBITORS FROM CELLULOSIC BIOMASS AND PRODUCING ALCOHOLS” (3M INNOVATIVE PROPERTIES COMPANY, priority 2010, published 2013).

Tests used:
[1] = Example 4: multilayer cross-flow MSE of C5 fraction; settings: 8 hour extraction
[2] = Example 3: single layer flow-through membrane solvent extraction (MSE) of C5 fraction; settings: 24 hour extraction

Row | SMILES | g/L in aqueous final ([1]; solvent 1-decanol) | g/L in solvent final ([1]; solvent 1-decanol) | g/L in aqueous final ([1]; solvent 2-octanol) | g/L in solvent final ([1]; solvent 2-octanol) | g/L in aqueous final ([2]; solvent 1-decanol) | g/L in extractant final ([2]; solvent 1-decanol) | g/L in aqueous final ([2]; solvent dibutyl maleate) | g/L in extractant final ([2]; solvent dibutyl maleate)
1 | CC(=O)O [acetic acid] | 2.86 g/L | 0.73 g/L | 2.13 g/L | 0.52 g/L | 5.14 g/L | 1.01 g/L | 6.83 g/L | 0.72 g/L
2 | O=Cc1ccc(CO)o1 [5-hydroxymethylfurfural] | 0.55 g/L | 0.21 g/L | 0.44 g/L | 0.13 g/L | 1.07 g/L | 0.25 g/L | 0.980 g/L | 0.50 g/L
3 | O=Cc1ccco1 [furfural] | 0.30 g/L | 0.52 g/L | 0.19 g/L | 0.27 g/L | 0.300 g/L | 0.43 g/L | 0.160 g/L | 0.90 g/L
4 | CC(O)C(=O)O (centres unmarked) [lactic acid] | 1.35 g/L | 0.04 g/L | 1.44 g/L | 0.02 g/L | 4.06 g/L | (0.00/0.00) g/L | 4.31 g/L | (0.00/0.00) g/L
5 | COc1cc(C=O)ccc1O [vanillin] | 0.12 g/L | 0.42 g/L | – | – | 0.001 g/L | 0.06 g/L | 0.005 g/L | 0.09 g/L
